## Library screen at single concentrations

Results are given as percent effect. The controls that fix the scale are not given in the record; negative values are as filed. The compounds are a random part of those screened. Two or more numbers in one place are separate tests of the same structure; such repeats can differ widely.

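Phenotypic screen: M. tuberculosis growth, glucose 7H9 medium, 3 days; the read-out is not stated. Tested at 50 µM. Direction is inferred from retests: higher values go with more growth inhibition. Of about 69,000 compounds tested this way, about 760 (1.1%) reached 50% or more in at least one test.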

SMILES	Percent Effect
CSCC(=O)N1CCC2(CC1)c1ccccc1CC2O (centres undefined)	-43.17%
COCCOc1ccccc1C(=O)Nc1c(C)cnn1CC1CC1	-0.8339%
CCNC(=O)NC(=O)CNC(C)(CC)c1nc(C)cs1 (centres undefined)	6.59%
COCCN1CCN(c2nc(C3CCCC3)nc3c2cnn3C)CC1	39.09% and 11.58%
Cc1cc(C)nc(Nc2cccc(C3CCCN(C)C3)n2)n1.O=CO (centres undefined)	18.45%
Cc1ccc(-c2nc(CN3CCN(C(=O)C4CC4)CC3)cs2)o1	16.07%
Cc1cccc(OC2CCN(S(=O)(=O)Cc3cccc(F)c3)CC2)n1	-7.037%
Cc1nc(COC[C@H]2CCC[C@]23CN(CC2CC2)CCO3)cs1	13.19%
N#Cc1cn(C2CC2)c(=O)n(CC(O)c2ccccc2F)c1=O (centres undefined)	-20.8%
O=C(C1CN(c2ncc(F)cn2)CC12CCOCC2)N1CC=CC1.O=C(O)C(F)(F)F (centres undefined)	0.2208% and -12.4%
[H][C@@]12CCN(C[C@@H]1C(=O)NC1CCCCC1)[C@@H](Cn1cc(CNC)nn1)C2	-5.035% and 9.657%
COc1ccc(CN2CCCC2)cc1Oc1cccc(C#N)n1	16.13%
O=C(CN1CCCCC1Cn1cncn1)NCCOc1ccccc1 (centres undefined)	-4.379%
O=C(CCN1CCOCC1)Nc1cccc(CNCc2cccs2)c1	-12.71%
NC(=O)CC1CCCCN1C(=O)c1cccc(C(F)(F)F)c1 (centres undefined)	-12.77%
CC(Oc1ccc(F)cc1)C(=O)N(CC(N)=O)C1CCCC1 (centres undefined)	-9.939%
Oc1nc(N2CCOCC2)nc2c1CCN(Cc1cccc(F)c1)CC2	-11.45%
COc1cccc(OC2CN(C(=O)c3ccoc3C)C2)c1	-20.12% and -1.387%
CC(O)CNCc1ccccc1C(F)(F)F.Cl (centres undefined)	55.63%
NC(=O)c1ccc(C(=O)N(Cc2ccc(O)cc2)CC2CC2)cc1	-3.168% and 2.219%
CCCc1cc(=O)[nH]c(-c2cccc(CN3CCN4CCCC4C3)c2)n1 (centres undefined)	4.435%
Nc1cc(C(=O)NCC2CCN(Cc3cccc(O)c3)C2)ccn1 (centres undefined)	20.33%
COc1ccc2c(c1)C(C(=O)NCCCN1CCN(C)CC1)CC(=O)N2 (centres undefined)	-19.27%
COc1ccc(CNc2c(C)cnc3c2c(=O)n(C)c(=O)n3C)cc1	-26.33%
O=C(O)C(F)(F)F.[H][C@@]12COC[C@]1(CNC(=O)c1ccco1)CN(C1CCOCC1)C2	3.934%
CC(=O)Nn1ccc2c(nnc3c(-c4ccccc4)cnn32)c1=O	9.079%
Cc1c[nH]cc1C(=O)N1CCN(CCc2cccs2)CC1	-25.1%
NC(=O)C1CCN(Cn2nc(-c3ccc(F)cc3)oc2=O)C1 (centres undefined)	2.307% and 10.49%
CCCc1nc2c(c(C)c(C)n2Cc2cccnc2)c(N)c1CC	17.67% and 18.11%
O=C(N[C@@H]1CNCCC[C@H]1O)c1ccc(OCCN2CCCC2)cc1	-2.372% and -30.31%
CC(C)C1CCN(C(=O)NCC(=O)N(C)CC(F)(F)F)CC1	-3.874%
CCc1oc(C(=O)N2CCC(N(CC)C(C)=O)C2)cc1CN(CC)CC (centres undefined)	-8.655% and 10.46%
COCCC(Cc1cccc(Br)c1)C(N)=O (centres undefined)	3.439% and -8.182%
Cc1c(C(=O)N[C@H]2CN(CCS(C)(=O)=O)C[C@@H]2C2CC2)cnn1C	-17.62% and 6.612%
Cc1ncc(C(=O)N2CCOC(C(=O)N3CCCCC3)C2)c(C)n1 (centres undefined)	1.384%
CCOc1ccc(NC(=O)C2OC(c3cccs3)=NN2C(C)=O)cc1 (centres undefined)	-18.86%
O=C(NCC1CC1)C1=NOC2(CCN(S(=O)(=O)Cc3ccccc3)C2)C1 (centres undefined)	5.528%
O=C(CCn1ccccc1=O)Nc1ccc(C(=O)O)cc1	-3.207%
CN(CC(=O)N1CCCC1c1noc(C2CC2)n1)Cc1ccccc1 (centres undefined)	0.9538%
N[C@H]1CN(C(=O)CCC(F)(F)F)C[C@@H]1c1ccccc1	18.02%
CCN(CC)CCC(=O)NCc1cc2n(n1)CCN(C(=O)N(C)C)C2	-5.428% and -2.776%
CC(Cn1ccnc1)NS(=O)(=O)c1ccc(F)c(Cl)c1 (centres undefined)	1.042%
COCC(=O)Nc1ccc(-c2noc([C@@H]3CCCN3C(C)C)n2)cn1	10.37% and 0.641%
O=C(NCC1CCCO1)Nc1nnc(C(F)(F)F)s1 (centres undefined)	-12.91%
CCC(CNC(=O)c1ccccc1OC)N1CCc2ccccc2C1 (centres undefined)	22.19% and 5.489%
[H][C@@]12COC[C@]1(COc1ccc(C#N)cn1)CN(c1cc(OC)ncn1)C2	4.813%
COc1ccc(C)nc1NC(=O)CCc1c(C)nn(C)c1C	20.77%
Cc1nsc(C(=O)NCCc2cccs2)n1	54.99%
O=C(C1CC1)N1CCC(c2nc(O)c3c(n2)CCN(C2CCCC2)C3)C1 (centres undefined)	3.219%
c1ccc(CN2CCOC3(CCCN(c4nccs4)C3)C2)cc1 (centres undefined)	15.74% and 28.63%
O=C(O)C(F)(F)F.O=C(O)C(F)(F)F.[H][C@@]12C[C@@H](Oc3cncnc3)CN1CCN(c1ncccn1)C2	12.67%
Cc1nc(C)n(CC2CN(Cc3cccc(OC(C)C)c3)CCO2)n1 (centres undefined)	11.29%
CCN(C)c1ncc2c(c1C(=O)O)CCN(C1CCOC1)C2.O=C(O)C(F)(F)F.O=C(O)C(F)(F)F (centres undefined)	-3.059% and -35.59%
Fc1ccc(OCC2CCCO2)c(NCc2noc(C3CC3)n2)c1 (centres undefined)	25% and 26.43%
[H][C@]12CCCCN1CCC[C@H]2CCC(=O)N1CCC(c2nnc[nH]2)CC1	-4.202%
O=C(CCOc1ccccc1Cl)N1CCN(c2cnccn2)CC1	9.765%
CN(CCc1ccccc1)c1cnn(CC(=O)N2CCOCC2)c(=O)c1	6.638%
O=C(Cc1cccs1)Nc1cnn(C2CCOC2)c1 (centres undefined)	-1.077%
[H][C@@]12CCN(Cc3nc(C)cs3)C[C@@]1([H])O[C@H](c1noc(C)n1)C2	12.89%
CN(C)C(CNc1c(NCc2ccco2)c(=O)c1=O)c1ccccc1 (centres undefined)	10.4%
Cn1c(N2CCOCC2)nc2cc(C(=O)N[C@@H]3CC[C@@H](N)C3)ccc21	13.01%
Cc1nc(CN2CCCC2Cn2cncn2)nc2ccccc12 (centres undefined)	22.51%
O=C(c1cc[nH]n1)N1CCCC1c1cc(Nc2ccccn2)n[nH]1 (centres undefined)	19.79%
[H][C@@]12OCCC[C@]1([H])N(S(C)(=O)=O)C[C@@H]2NC(=O)c1ccno1	4.491%
CC(=O)Nc1nc(CN(C)C2CCCN(c3cccnn3)C2)cs1 (centres undefined)	6.435%
CCN(C)S(=O)(=O)N(CC)Cc1cccc(-c2ccncc2)c1	45.54%
CCCN(CCc1ccccn1)C(=O)Cn1cc(C)cn1	1.235%

4 of the entries, repeated:

| SMILES | Percent Effect |
|---|---|
| `Cc1cccc(OC2CCN(S(=O)(=O)Cc3cccc(F)c3)CC2)n1` | -7.037% |
| `COc1ccc(CNc2c(C)cnc3c2c(=O)n(C)c(=O)n3C)cc1` | -26.33% |
| `O=C(N[C@@H]1CNCCC[C@H]1O)c1ccc(OCCN2CCCC2)cc1` | -2.372% and -30.31% |
| `Cc1ncc(C(=O)N2CCOC(C(=O)N3CCCCC3)C2)c(C)n1` (centres undefined) | 1.384% |

Data taken from ChEMBL document CHEMBL3988442, “University of Dundee, Small-Polar-MMV Screening Library” (2021).